Laboratory results as given in paper PMC12752613.
No constants are given. Whether binding was seen depends on the method and setting. Binding seen in cells or lysates may run through a third protein. Some binding calls cover weakened binding; strength is not graded here.

Amino acid sequences for entries named in this document (tags omitted). A change or cut given only in a name is not applied to a line headed by its entry.
UniProt P05556: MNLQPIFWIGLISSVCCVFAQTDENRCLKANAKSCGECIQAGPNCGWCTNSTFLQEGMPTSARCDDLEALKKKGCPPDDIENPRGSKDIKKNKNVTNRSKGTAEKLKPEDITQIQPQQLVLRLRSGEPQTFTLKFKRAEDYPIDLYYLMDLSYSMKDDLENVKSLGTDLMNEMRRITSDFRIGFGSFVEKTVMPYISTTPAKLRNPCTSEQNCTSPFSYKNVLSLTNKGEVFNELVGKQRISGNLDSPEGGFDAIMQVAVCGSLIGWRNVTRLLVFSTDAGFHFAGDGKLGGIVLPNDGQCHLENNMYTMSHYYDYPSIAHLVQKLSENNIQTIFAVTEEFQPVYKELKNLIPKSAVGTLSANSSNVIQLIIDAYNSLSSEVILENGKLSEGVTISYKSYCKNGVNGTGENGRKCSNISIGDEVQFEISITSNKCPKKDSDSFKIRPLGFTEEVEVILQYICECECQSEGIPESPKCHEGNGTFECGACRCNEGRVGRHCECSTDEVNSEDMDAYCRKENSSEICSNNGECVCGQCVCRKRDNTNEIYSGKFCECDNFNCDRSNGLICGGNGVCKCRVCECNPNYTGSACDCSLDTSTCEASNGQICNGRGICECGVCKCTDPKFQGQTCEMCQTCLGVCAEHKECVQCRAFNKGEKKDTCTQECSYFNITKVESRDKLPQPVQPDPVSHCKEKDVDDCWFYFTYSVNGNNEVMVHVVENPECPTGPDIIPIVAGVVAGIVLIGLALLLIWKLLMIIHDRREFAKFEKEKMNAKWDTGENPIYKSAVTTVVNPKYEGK

Target: T1, MUC15 (human (endogenous in Panc-1 and MiaPaca-2)) (UniProt Q8N387)
T1 sequence: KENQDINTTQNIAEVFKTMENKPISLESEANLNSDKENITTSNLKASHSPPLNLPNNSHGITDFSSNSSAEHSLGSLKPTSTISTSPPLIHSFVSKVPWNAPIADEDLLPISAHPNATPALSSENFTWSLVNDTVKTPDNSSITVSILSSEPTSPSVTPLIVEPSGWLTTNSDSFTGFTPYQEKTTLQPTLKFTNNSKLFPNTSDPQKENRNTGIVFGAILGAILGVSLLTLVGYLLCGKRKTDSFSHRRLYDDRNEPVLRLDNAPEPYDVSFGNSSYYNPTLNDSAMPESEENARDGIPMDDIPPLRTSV
Experiment: co-IP; Panc-1 and MiaPaca-2 cell lysates (150 mM NaCl, 10 mM Tris-HCl pH 7.4, 1 mM EDTA, 1 mM EGTA, 1% Triton X-100, 0.5% NP-40); overnight with 2 µg anti-MUC15 or integrin β1 antibody at 4 °C, Protein A/G agarose, SDS-PAGE

binding: binds
Substance: integrin β1 (from UniProt P05556 21-798) (receptor)
